In this test the target is T1, Aspartate β-hydroxylase (human (endogenous in BGC823)) (UniProt Q12797).
T1 sequence: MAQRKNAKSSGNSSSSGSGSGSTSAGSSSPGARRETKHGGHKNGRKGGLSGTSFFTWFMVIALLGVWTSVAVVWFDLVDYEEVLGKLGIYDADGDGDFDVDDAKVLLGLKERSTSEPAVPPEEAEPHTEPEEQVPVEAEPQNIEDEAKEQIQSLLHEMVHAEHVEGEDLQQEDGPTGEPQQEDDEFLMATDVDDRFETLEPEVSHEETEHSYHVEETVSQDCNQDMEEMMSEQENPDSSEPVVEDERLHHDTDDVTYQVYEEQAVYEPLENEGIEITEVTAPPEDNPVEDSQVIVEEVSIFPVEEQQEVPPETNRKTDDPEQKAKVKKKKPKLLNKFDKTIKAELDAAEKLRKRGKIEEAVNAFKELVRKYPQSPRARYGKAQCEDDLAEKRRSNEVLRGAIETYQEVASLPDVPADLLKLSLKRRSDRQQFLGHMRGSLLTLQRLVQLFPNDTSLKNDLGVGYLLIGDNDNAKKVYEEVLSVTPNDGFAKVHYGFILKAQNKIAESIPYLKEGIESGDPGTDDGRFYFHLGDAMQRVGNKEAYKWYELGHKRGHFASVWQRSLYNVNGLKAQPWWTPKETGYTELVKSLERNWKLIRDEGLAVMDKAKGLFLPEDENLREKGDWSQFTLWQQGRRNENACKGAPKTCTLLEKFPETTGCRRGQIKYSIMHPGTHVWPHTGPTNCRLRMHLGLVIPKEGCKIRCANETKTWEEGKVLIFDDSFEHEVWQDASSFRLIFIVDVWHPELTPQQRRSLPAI
Nature of the test: co-IP; BGC823 lysate (IP lysis buffer: 20 mM Tris-HCl pH 7.5, 150 mM NaCl, 10% glycerol, 1 mM EDTA, 1% Triton X-100, 1 mM DTT); anti-ASPH and G/A beads at 4 °C overnight; Western blot with LAPTM4B antibody.

The values that follow come from PMC10053938.

No constants are given. Whether binding was seen depends on the method and setting. Binding seen in cells or lysates may run through a third protein. Some entries that bind do so weakly or less than the wild type.

B1: LAPTM4B (protein, UniProt Q86VI4 1-317)
chain: MTSRTRVTWPSPPRPLPVPAAAAVAFGAKGTDPAEARSSRGIEEAGPRAHGRAGREPERRRSRQQRRGGLQARRSTLLKTCARARATAPGAMKMVAPWTRFYSNSCCLCCHVRTGTILLGVWYLIINAVVLLILLSALADPDQYNFSSSELGGDFEFMDDANMCIAIAISLLMILICAMATYGAYKQRAAWIIPFFCYQIFDFALNMLVAITVLIYPNSIQEYIRQLPPNFPYRDDVMSVNPTCLVLIILLFISIILTFKGYLISCVWNCYRYINGRNSSDVLVYVTSNDTTVLLPPYDDATVNGAAKEPPPPYVSA
For the molecule B1, the binding result is “binds”.
